No constants are given. Whether binding was seen depends on the method and setting. Some binding calls cover weakened binding; strength is not graded here. Where no end group is shown, it is not given here.
How the values were obtained:
[1] = biological target: T1, Human TGR342 (human, UniProt Q969V1 1-340); test: competition of excess unlabeled MCH against [125I]-MCH on TGR342 membranes
[2] = biological target: T1, Human TGR342; test: radioligand binding to membranes (FIG. 6)

Protein sequences, listed by entry. Tags and fused reporters are not part of them. Lines headed by an entry give the natural chain unless they say otherwise; changes in a name come on top.
UniProt Q969V1: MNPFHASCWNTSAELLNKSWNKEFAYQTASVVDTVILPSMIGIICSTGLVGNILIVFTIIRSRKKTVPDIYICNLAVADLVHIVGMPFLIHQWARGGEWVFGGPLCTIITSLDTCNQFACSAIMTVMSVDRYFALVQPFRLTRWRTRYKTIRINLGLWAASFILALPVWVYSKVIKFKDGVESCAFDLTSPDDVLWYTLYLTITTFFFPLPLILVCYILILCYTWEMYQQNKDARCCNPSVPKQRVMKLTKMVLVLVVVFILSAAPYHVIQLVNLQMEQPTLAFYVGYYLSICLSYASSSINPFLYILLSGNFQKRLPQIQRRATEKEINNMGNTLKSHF
UniProt P20382: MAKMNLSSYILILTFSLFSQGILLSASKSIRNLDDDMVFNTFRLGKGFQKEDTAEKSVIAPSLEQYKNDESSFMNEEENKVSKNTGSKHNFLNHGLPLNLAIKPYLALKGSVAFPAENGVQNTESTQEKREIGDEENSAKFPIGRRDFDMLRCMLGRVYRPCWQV

| binding [1] | binding [2] | Molecule |
| --- | --- | --- |
| binds | – | melanin-concentrating hormone (MCH) (from UniProt P20382 147-165) (peptide) |
| – | binds | DFDMLRCMLGRVYRPCWQV (peptide, UniProt P20382 147-165, looked up, ends and bridges not checked; also: 125I label, labelled residue not given here, mature) [[^125I]-MCH] |

Source: patent US20030027252A1 (TULARIK, published 2003)
